No constants are given. Whether binding was seen depends on the method and setting. In cells and extracts the contact can be indirect. Some binding calls cover weakened binding; strength is not graded here.
Assays:
[1] = molecular target: IQ motif-containing GTPase-activating protein 1 (IQGAP1) (human (endogenous in skin fibroblasts)) (UniProt P46940); assay: co-IP
[2] = molecular target: GST-IQGAP1-N (aa 1–863) (human) (UniProt P46940); assay: pull-down
[3] = molecular target: GST-IQGAP1-C (aa 746–1657) (human) (UniProt P46940); assay: pull-down

Chains of the proteins cited; added tags and fusions are not shown. Lines headed by an entry give the natural chain unless they say otherwise; changes in a name come on top. Residues count along the entry.
UniProt P46940: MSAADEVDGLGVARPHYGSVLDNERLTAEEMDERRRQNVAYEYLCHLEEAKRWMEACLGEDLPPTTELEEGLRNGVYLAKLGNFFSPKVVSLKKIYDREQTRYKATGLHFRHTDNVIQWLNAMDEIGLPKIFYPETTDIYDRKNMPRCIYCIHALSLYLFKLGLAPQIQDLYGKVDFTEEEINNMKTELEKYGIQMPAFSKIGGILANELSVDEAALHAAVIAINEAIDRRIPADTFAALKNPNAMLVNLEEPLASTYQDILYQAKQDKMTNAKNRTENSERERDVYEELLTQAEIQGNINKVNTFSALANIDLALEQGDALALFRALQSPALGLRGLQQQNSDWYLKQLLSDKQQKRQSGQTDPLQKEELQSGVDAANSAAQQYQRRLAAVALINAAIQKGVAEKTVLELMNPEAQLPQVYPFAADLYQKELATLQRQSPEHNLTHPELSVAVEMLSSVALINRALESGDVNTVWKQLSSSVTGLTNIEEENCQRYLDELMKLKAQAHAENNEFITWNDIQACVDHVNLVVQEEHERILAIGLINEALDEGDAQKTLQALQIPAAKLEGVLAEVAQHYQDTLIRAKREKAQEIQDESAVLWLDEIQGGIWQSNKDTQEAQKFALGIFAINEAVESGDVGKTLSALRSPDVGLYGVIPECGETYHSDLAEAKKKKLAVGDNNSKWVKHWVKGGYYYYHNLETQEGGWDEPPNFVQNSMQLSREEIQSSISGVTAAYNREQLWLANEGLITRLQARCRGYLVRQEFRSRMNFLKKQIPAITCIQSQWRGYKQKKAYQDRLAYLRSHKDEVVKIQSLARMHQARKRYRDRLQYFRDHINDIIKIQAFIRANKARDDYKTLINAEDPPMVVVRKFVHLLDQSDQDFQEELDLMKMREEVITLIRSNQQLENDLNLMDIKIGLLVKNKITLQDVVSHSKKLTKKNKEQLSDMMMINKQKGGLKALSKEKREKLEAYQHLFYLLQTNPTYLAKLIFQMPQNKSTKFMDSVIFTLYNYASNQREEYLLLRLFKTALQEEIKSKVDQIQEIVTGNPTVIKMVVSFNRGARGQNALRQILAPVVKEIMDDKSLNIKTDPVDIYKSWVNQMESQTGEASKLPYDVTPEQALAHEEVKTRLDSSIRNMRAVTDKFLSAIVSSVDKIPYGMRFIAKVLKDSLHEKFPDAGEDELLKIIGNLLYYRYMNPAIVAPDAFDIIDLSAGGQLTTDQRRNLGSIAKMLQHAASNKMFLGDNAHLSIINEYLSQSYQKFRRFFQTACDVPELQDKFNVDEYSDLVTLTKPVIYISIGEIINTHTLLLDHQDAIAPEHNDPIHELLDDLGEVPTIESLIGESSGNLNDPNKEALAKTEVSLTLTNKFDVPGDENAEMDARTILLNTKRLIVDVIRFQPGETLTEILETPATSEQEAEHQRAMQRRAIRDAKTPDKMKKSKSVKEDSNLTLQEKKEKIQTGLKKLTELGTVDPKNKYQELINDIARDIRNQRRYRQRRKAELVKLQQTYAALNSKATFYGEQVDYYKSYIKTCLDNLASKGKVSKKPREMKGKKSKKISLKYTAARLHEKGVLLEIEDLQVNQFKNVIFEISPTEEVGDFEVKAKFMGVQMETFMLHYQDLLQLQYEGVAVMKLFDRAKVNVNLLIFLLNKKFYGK
GST-IQGAP1-N (aa 1–863): residues 1-863 of P46940
GST-IQGAP1-C (aa 746–1657): residues 746-1657 of P46940

Binder	binding [1]	binding [2]	binding [3]
Phospholipase C (PLC)-δ1 (enzyme, UniProt P51178 1-756) MDSGRDFLTLHGLQDDEDLQALLKGSQLLKVKSSSWRRERFYKLQEDCKTIWQESRKVMRTPESQLFSIEDIQEVRMGHRTEGLEKFARDVPEDRCFSIVFKDQRNTLDLIAPSPADAQHWVLGLHKIIHHSGSMDQRQKLQHWIHSCLRKADKNKDNKMSFKELQNFLKELNIQVDDSYARKIFRECDHSQTDSLEDEEIEAFYKMLTQRVEIDRTFAEAAGSGETLSVDQLVTFLQHQQREEAAGPALALSLIERYEPSETAKAQRQMTKDGFLMYLLSADGSAFSLAHRRVYQDMGQPLSHYLVSSSHNTYLLEDQLAGPSSTEAYIRALCKGCRCLELDCWDGPNQEPIIYHGYTFTSKILFCDVLRAIRDYAFKASPYPVILSLENHCTLEQQRVMARHLHAILGPMLLNRPLDGVTNSLPSPEQLKGKILLKGKKLGGLLPPGGEGGPEATVVSDEDEAAEMEDEAVRSRVQHKPKEDKLRLAQELSDMVIYCKSVHFGGFSSPGTPGQAFYEMASFSENRALRLLQESGNGFVRHNVGHLSRIYPAGWRTDSSNYSPVEMWNGGCQIVALNFQTPGPEMDVYQGRFQDNGACGYVLKPAFLRDPNGTFNPRALAQGPWWARKRLNIRVISGQQLPKVNKNKNSIVDPKVTVEIHGVSRDVASRQTAVITNNGFNPWWDTEFAFEVVVPDLALIRFLVEDYDASSKNDFIGQSTIPLNSLKQGYRHVHLMSKNGDQHPSATLFVKISLQD	binds		
PLC-δ1 (1–756) (enzyme, UniProt P51178 1-756) MDSGRDFLTLHGLQDDEDLQALLKGSQLLKVKSSSWRRERFYKLQEDCKTIWQESRKVMRTPESQLFSIEDIQEVRMGHRTEGLEKFARDVPEDRCFSIVFKDQRNTLDLIAPSPADAQHWVLGLHKIIHHSGSMDQRQKLQHWIHSCLRKADKNKDNKMSFKELQNFLKELNIQVDDSYARKIFRECDHSQTDSLEDEEIEAFYKMLTQRVEIDRTFAEAAGSGETLSVDQLVTFLQHQQREEAAGPALALSLIERYEPSETAKAQRQMTKDGFLMYLLSADGSAFSLAHRRVYQDMGQPLSHYLVSSSHNTYLLEDQLAGPSSTEAYIRALCKGCRCLELDCWDGPNQEPIIYHGYTFTSKILFCDVLRAIRDYAFKASPYPVILSLENHCTLEQQRVMARHLHAILGPMLLNRPLDGVTNSLPSPEQLKGKILLKGKKLGGLLPPGGEGGPEATVVSDEDEAAEMEDEAVRSRVQHKPKEDKLRLAQELSDMVIYCKSVHFGGFSSPGTPGQAFYEMASFSENRALRLLQESGNGFVRHNVGHLSRIYPAGWRTDSSNYSPVEMWNGGCQIVALNFQTPGPEMDVYQGRFQDNGACGYVLKPAFLRDPNGTFNPRALAQGPWWARKRLNIRVISGQQLPKVNKNKNSIVDPKVTVEIHGVSRDVASRQTAVITNNGFNPWWDTEFAFEVVVPDLALIRFLVEDYDASSKNDFIGQSTIPLNSLKQGYRHVHLMSKNGDQHPSATLFVKISLQD		binds	no binding

From paper doi:10.1101/526152
